Key:
Format in all cases: in vivo, Balb/C mice
[1] = system: acetic acid-induced stress mice; assay: Chemical induced stress (acetic acid model, writhes); settings: Mus musculus, ip, 360 h, read-out: Antistress Response (%)
Excerpt: The anti-stress effect of synthesized flavonoids was screened for chemical-induced stress using the acetic acid model. Animals were randomly assigned into two groups of 8. The control group received Tween 80 (2%). […] The treatments in all groups were given persistently for a period of 15 days.

mice [2] = assay: Restraint stress, organ weights; settings: restraint stress 2 h; flavonoids 10 mg/kg p.o., standard diazepam 2 mg/kg IP, 15 days; mean ± SEM
Excerpt: The adhesive tape was removed, and blood samples were collected. After blood collection, the animals were sacrificed, and the brain and vital organs were isolated and weighed.

mice [3] = assay: Biochemical parameters in brain after restraint stress; settings: flavonoids 10 mg/kg, standard diazepam 2 mg/kg, 15 days, mean ± SEM

## CN1C(=O)CN=C(c2ccccc2)c2cc(Cl)ccc21 [Standard, Diazepam, reference compound]
[1]
  inhibition in vivo at 2 mg/kg: 91.5%
Mice [2]
  Weight of Brain: 390.8 ± 2.75 mg
Mice [3]
  Catalase (brain): 17.25 ± 0.66 IU/dL
  SOD (brain): 6.56 ± 0.57 IU/dL
  TBARS (brain lipid peroxidation): 18.22 ± 0.65 nmol/g

Source: PMC8879959, “In Vivo Antistress Effects of Synthetic Flavonoids in Mice: Behavioral and Biochemical Approach” (Molecules, 2022)
